Experimental data from PubChem BioAssay AID540276 (National Center for Advancing Translational Sciences (NCATS), 2011).
The campaign covered roughly 300,000 compounds. About 5,400 (1.8%) were called active. Inconclusive results, whose numbers are uncertain, are shown with a selection of clear calls. Calls come from the whole dose curve; tested in HEK293 cells. Potencies of inconclusive entries are doubtful fits and often do not repeat.

Experiment: qHTS for inhibitors of binding or entry into cells for Marburg Virus
Conditions: Marburg virus pseudotyped entry inhibition, cell reporter; series mostly up to 37.8 µM
Potency is the fitted concentration of half-maximal effect.

**Q.** With `c1cncc(-c2nc(NCCCn3ccnc3)c3ccccc3n2)c1` as the compound, how does the Potency read?
**A.** inconclusive: 1.12 µM [inhibitor, partial curve, poor fit]

**Q.** For `CCCCn1c(=O)c(C(=O)NCc2ccc(Cl)cc2)c(O)c2ccccc21`, which Potency is on record?
**A.** inconclusive: 35.5 µM [inhibitor, single point]

**Q.** For `COC(=O)COc1cccc(NC(=O)c2ccc(C)cc2)c1`, which Potency is on record?
**A.** inactive

**Q.** Which Potency does the source give for `CC(C)N(CC#CC(O)(c1ccccc1)c1ccccc1)C(C)C` here?
**A.** inconclusive: 35.5 µM [inhibitor, single point]

**Q.** For `CC(=O)Nc1ccc(Nc2ccc3nonc3c2[N+](=O)[O-])cc1`, which Potency is on record?
**A.** inconclusive: 3.16 µM [inhibitor, partial curve, poor fit]

**Q.** For `COc1ccc(C(C)=O)cc1CC(C(=O)c1ccc(C)c(C)c1)N(C)C` (stereo not given), which Potency is on record?
**A.** inactive

**Q.** Which Potency does the source give for `O=[N+]([O-])c1cc(-c2nc(-c3ccccc3)no2)ccc1NCCc1ccccc1` here?
**A.** inactive

**Q.** For `CNC(=S)N/N=C1\CC(c2ccccc2)Oc2ccccc21` (stereo not given), which Potency is on record?
**A.** inactive

**Q.** With `CC1CCCN(c2ccc(C(=O)NCc3ccccc3)cn2)C1` (stereo not given) as the compound, how does the Potency read?
**A.** inconclusive: 2.82 µM [activator, partial curve, poor fit]

**Q.** For `CC(=C/c1ccccc1)/C=N/NC(=O)c1cccs1`, which Potency is on record?
**A.** inconclusive: 8.91 µM [inhibitor, partial curve, poor fit]

**Q.** For `O=C(CC1SC(=O)N(c2ccccc2)C1=O)Nc1ccccc1` (stereo not given), which Potency is on record?
**A.** inactive

**Q.** With `Cn1c(Sc2ccc(Br)cc2)c(C=O)c2ccccc21` as the compound, how does the Potency read?
**A.** inconclusive: 35.5 µM [inhibitor, single point]

**Q.** Which Potency does the source give for `COc1cc(OC)cc(C(=O)NNC(=O)NC2CCCCC2)c1` here?
**A.** inactive

**Q.** Which Potency does the source give for `Cc1occc1C(=O)Nc1ccc2c(c1)OCCO2` here?
**A.** inconclusive: 1.3 µM [activator, single point]

**Q.** For `O=S(=O)(NCC(c1ccco1)N1CCN(c2ccccc2F)CC1)c1ccc2c(c1)OCCO2` (stereo not given), which Potency is on record?
**A.** inconclusive: 35.5 µM [inhibitor, single point]

**Q.** For `COCCN(CC(=O)Nc1cccc(C)c1C)C(=O)c1ccc(S(=O)(=O)N2CCOCC2)cc1`, which Potency is on record?
**A.** inconclusive: 0.708 µM [inhibitor, single point]

**Q.** With `Cc1nn(CC(=O)OC(C)C(=O)Nc2ccccc2[N+](=O)[O-])c(C)c1[N+](=O)[O-]` (stereo not given) as the compound, how does the Potency read?
**A.** inconclusive: 6.31 µM [activator, single point]

**Q.** Which Potency does the source give for `COc1ccccc1/C=N/OCc1ccc(C#N)cc1` here?
**A.** inactive

**Q.** Which Potency does the source give for `COc1cccc(NC(=O)CN(C)CC(=O)Nc2ccc(C)c([N+](=O)[O-])c2)c1` here?
**A.** inconclusive: 6.31 µM [activator, single point]

**Q.** For `NC(=O)C1=CC2C3C=CC2(O)C(=O)OC3O1` (stereo not given), which Potency is on record?
**A.** inconclusive: 5.62 µM [inhibitor, partial curve, poor fit]

**Q.** With `OC1(c2cccs2)CN(c2ccccc2)C2=[N+]1CCCC2` (stereo not given) as the compound, how does the Potency read?
**A.** inactive

**Q.** Which Potency does the source give for `CCCOc1ccc(N2C(=O)CC(N3CCN(c4nc5ccccc5s4)CC3)C2=O)cc1` (stereo not given) here?
**A.** inactive

**Q.** For `O=C(CCn1cccn1)N1CCCC(N2CCN(c3cccc(C(F)(F)F)c3)CC2)C1` (stereo not given), which Potency is on record?
**A.** inactive

**Q.** For `O=C(O)CCCCCN1C(=O)C(O)=C(C(=O)/C=C/c2ccccc2)C1c1ccccc1[N+](=O)[O-]` (stereo not given), which Potency is on record?
**A.** inactive

**Q.** Which Potency does the source give for `Cn1c(O)c(N=NC(=O)c2cccc(S(=O)(=O)N3CCCCC3)c2)c2ccccc21` here?
**A.** inconclusive: 18.4 µM [inhibitor, single point]

**Q.** Which Potency does the source give for `COc1ccc(NS(=O)(=O)c2cccc(C(=O)NNC(=O)c3ccc(NC(C)=O)cc3)c2)cc1` here?
**A.** inconclusive: 0.316 µM [activator, partial curve, poor fit]

**Q.** Which Potency does the source give for `Cc1ccc(C)c(/C=N/n2cc(-c3ccccc3)[nH]c2=S)c1` here?
**A.** inactive

**Q.** For `CC(=O)Nc1nc(-c2ccc([N+](=O)[O-])cc2)cs1`, which Potency is on record?
**A.** inactive

**Q.** Which Potency does the source give for `COc1ccccc1/C=C/C=N/n1c(-c2cc(C)[nH]n2)n[nH]c1=S` here?
**A.** inconclusive: 1.41 µM [activator, partial curve]

**Q.** For `C(=N\n1cnnc1)/c1ccc(N2CCOCC2)cc1`, which Potency is on record?
**A.** inactive

**Q.** With `O=S(=O)(c1ccccc1)N1CN2CCN(C2)C1` as the compound, how does the Potency read?
**A.** inconclusive: 1.26 µM [inhibitor, single point]

**Q.** Which Potency does the source give for `Fc1ccc(NC(=S)NCCc2ccccc2)c(F)c1F` here?
**A.** inactive

**Q.** Which Potency does the source give for `CC1(C)CC2CC(C)(CN2C(=O)c2ccccc2)C1` (stereo not given) here?
**A.** inconclusive: 6.31 µM [activator, single point]

**Q.** For `COc1ccc(NC(=O)c2ccc(NC(=O)c3nc4nc(C)cc(C)n4n3)cc2)cc1`, which Potency is on record?
**A.** inconclusive: 2.82 µM [inhibitor, partial curve, poor fit]

**Q.** With `CCc1ccc(-c2nn(-c3ccccc3)cc2CSC(=N)N)cc1` as the compound, how does the Potency read?
**A.** inconclusive: 10 µM [inhibitor, partial curve, poor fit]

**Q.** For `CCOC(=O)CC(NC(=O)Cn1nnc(-c2ccccc2F)n1)c1ccccc1Cl` (stereo not given), which Potency is on record?
**A.** inconclusive: 0.562 µM [inhibitor, full curve, poor fit]

**Q.** Which Potency does the source give for `CN(C)c1oc(/C=C/c2cccs2)nc1S(=O)(=O)c1ccccc1` here?
**A.** inconclusive: 35.5 µM [inhibitor, single point]

**Q.** Which Potency does the source give for `COc1cccc(NC(=O)c2ccc(-n3cccn3)nc2)c1` here?
**A.** inactive

**Q.** With `C[C@]12Cc3cn4c(nc3C=C1CCC1C2CC[C@@]2(C)[C@H]1CC[C@@]2(O)C#N)nc1ccccc14` (stereo not given in full) as the compound, how does the Potency read?
**A.** active: 10 µM

**Q.** With `S=C(Nc1ccc(Cl)cc1)NN1CCOCC1` as the compound, how does the Potency read?
**A.** inconclusive: 0.631 µM [activator, full curve, poor fit]

**Q.** For `COc1ccc(NC(=O)Nc2ccc(C)cc2OC(F)F)cc1OC`, which Potency is on record?
**A.** inactive

**Q.** With `COc1cccc(N=Nc2ccc(O)c3ncccc23)c1` as the compound, how does the Potency read?
**A.** inconclusive: 6.31 µM [inhibitor, partial curve, poor fit]

**Q.** With `Cc1ccc(-c2ccc(/C=C3\C(=O)ON=C3c3ccccc3)o2)c([N+](=O)[O-])c1` as the compound, how does the Potency read?
**A.** inconclusive: 29.1 µM [inhibitor, single point]

**Q.** With `Cc1cc(C)c(NC(=O)CNC(=O)c2cc([N+](=O)[O-])ccc2N2CCOCC2)c(C)c1` as the compound, how does the Potency read?
**A.** inconclusive: 7.08 µM [inhibitor, partial curve]

**Q.** For `CCn1ncc(CN2CCCC(CNC(=O)c3ccc(F)cc3)C2)c1C` (stereo not given), which Potency is on record?
**A.** inconclusive: 22.4 µM [inhibitor, single point]
